Assay results as given in patent US20120087949, “OLIGONUCLEOTIDE MICELLES” (University of Florida Research Foundation, Inc., published 2012).

Chains of the proteins cited; added tags and fusions are not shown.
UniProt P01871, whole entry: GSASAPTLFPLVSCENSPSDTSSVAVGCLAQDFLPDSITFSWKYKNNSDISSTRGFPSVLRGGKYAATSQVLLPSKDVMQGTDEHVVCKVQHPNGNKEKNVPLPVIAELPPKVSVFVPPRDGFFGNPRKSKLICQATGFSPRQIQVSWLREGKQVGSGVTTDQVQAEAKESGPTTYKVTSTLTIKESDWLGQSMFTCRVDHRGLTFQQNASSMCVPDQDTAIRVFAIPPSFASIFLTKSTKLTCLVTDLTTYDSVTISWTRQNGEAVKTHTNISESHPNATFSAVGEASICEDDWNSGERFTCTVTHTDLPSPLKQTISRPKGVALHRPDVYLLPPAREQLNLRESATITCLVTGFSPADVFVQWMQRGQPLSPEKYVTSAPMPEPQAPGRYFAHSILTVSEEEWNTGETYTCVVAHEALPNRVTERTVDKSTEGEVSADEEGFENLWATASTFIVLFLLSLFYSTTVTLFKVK

Experiments:
[1] = biological target: IGHM (immunoglobulin heavy mu chain), on Ramos cells (UniProt P01871); assay: binding assay; details: protein on the cell surface, protein details: endogenous on Ramos cells (ATCC CRL-1596), single-stranded DNA, variant of TDO5
[2] = biological target: IGHM (immunoglobulin heavy mu chain), on Ramos cells (UniProt P01871); assay: flow cytometry; details: Ramos cells at 37 C, 250 nM, 5 min; 5 mM MgCl2 in DPBS; protein on the cell surface; protein details: endogenous on Ramos cells (ATCC CRL-1596); label: FITC; single-stranded DNA

AACACCGGGAGGATAGTTCGGTGGCTGTTCAGGGTCTCCTCCCGGTGA [Lipo-tdo5-TMR]
binding result ([1]; 5'-diacyl lipid-(PEG)4, membrane anchored, Ramos cell aggregation, abolished by proteinase K, label: 3'-TMR): binds

AACACCGGGAGGATAGTTCGGTGGCTGTTCAGGGTCTCCTCCCGGTGA [TDO5]
binding result [2]: no binding

AACACCGGGAGGATAGTTCGGTGGCTGTTCAGGGTCTCCTCCCGGTGATTTTTTTTTT [biotin-TDO5]
binding result ([1]; immobilized aptamer captured Ramos cells in flow channel, label: 3'-biotin): binds

Where cells or extracts were used, other partners may take part. For part of these data: No signal at the amounts used counts as a negative.
